These results are taken from paper PMC6692130, “PHLPP1 counter-regulates STAT1-mediated inflammatory signaling” (eLife, 2019).

Chains of the proteins cited; added tags and fusions are not shown.
UniProt P42224: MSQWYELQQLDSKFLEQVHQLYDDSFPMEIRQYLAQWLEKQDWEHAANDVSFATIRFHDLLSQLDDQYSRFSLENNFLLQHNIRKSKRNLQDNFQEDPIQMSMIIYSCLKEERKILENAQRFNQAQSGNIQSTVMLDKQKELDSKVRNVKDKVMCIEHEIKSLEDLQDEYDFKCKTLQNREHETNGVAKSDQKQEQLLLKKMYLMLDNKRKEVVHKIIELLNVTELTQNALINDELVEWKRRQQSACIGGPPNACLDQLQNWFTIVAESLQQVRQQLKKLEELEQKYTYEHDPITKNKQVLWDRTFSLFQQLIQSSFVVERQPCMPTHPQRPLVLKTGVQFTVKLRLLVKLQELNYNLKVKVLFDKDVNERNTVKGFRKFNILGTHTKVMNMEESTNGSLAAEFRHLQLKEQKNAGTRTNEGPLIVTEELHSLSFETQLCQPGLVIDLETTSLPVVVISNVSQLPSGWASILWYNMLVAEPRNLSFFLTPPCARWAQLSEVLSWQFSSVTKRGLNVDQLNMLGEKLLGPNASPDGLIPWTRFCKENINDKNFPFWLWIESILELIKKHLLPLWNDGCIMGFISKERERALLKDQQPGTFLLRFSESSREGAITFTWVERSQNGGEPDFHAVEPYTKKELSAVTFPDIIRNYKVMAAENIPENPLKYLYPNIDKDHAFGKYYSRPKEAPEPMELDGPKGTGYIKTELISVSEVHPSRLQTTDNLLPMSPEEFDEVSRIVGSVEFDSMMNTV

Common to all, as to assay: co-IP; HEK-293T cells transfected with HA-tagged PHLPP1 constructs and GFP-STAT1; detergent-solubilized lysates incubated with anti-HA antibody at 4°C overnight, protein A/G agarose 1 hr at 4°C, washed three times in lysis buffer with 0.3 M NaCl and 0.1% Triton X 100; blot probed with GFP antibody; GFP-STAT1 IP divided by HA IP, normalized to HA-NTE IP, three independent experiments

The target in assay [1] is T1, HA-tagged PHLPP1 N-terminal extension (PHLPP1 NTE), residues 1-512 (UniProt O60346).
T1 sequence: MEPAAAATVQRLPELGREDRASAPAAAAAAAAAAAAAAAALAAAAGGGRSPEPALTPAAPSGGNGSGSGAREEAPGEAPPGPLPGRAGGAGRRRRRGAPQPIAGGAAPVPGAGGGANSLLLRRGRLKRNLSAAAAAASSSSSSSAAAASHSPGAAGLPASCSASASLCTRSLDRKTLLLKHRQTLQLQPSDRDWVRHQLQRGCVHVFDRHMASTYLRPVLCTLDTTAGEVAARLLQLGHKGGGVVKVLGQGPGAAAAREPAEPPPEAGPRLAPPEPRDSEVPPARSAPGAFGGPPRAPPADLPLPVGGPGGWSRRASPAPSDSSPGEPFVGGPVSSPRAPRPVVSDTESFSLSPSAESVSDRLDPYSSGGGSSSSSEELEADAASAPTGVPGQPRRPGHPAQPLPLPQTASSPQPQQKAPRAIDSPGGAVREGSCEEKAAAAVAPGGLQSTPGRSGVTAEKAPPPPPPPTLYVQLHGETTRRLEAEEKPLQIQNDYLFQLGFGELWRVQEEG

For assay [2], the target named is HA-tagged full-length PHLPP1 (UniProt O60346).
The target in assay [3] is T2, PHLPP1 with the NTE deleted (HA-PHLPP1 ΔNTE), residues 513-1717 (UniProt O60346).
T2 sequence: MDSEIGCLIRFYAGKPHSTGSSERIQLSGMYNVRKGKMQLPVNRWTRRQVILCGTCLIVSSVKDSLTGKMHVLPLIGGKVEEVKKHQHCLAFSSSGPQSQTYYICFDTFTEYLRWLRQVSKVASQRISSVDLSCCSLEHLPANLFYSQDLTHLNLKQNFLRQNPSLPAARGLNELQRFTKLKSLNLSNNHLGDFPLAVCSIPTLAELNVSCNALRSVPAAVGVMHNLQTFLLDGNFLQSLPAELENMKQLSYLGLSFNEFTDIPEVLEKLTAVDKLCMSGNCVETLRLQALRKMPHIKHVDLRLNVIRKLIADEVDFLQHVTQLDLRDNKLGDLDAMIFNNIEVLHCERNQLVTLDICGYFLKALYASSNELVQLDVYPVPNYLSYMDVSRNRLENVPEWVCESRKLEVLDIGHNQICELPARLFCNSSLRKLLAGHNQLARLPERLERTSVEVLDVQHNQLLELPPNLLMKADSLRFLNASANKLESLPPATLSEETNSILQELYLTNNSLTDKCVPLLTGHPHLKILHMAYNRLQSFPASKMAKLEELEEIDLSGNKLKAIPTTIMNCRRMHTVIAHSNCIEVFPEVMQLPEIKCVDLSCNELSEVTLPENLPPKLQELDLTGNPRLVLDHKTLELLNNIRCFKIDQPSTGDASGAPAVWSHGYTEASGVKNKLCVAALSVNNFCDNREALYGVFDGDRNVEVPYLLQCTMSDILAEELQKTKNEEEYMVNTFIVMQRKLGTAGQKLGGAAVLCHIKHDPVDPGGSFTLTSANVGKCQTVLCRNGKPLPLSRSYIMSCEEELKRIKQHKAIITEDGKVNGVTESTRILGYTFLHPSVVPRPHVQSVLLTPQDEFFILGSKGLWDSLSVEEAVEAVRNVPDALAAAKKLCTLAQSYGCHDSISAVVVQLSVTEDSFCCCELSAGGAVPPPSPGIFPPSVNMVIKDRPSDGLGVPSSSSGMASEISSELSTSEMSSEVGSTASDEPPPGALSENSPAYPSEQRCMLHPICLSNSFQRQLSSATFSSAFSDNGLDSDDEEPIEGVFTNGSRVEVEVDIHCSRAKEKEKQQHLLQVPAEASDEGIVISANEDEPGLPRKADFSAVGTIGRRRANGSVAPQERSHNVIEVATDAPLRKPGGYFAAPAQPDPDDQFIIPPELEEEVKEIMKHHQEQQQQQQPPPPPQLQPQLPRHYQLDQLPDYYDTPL

Results are given in words; binding and its absence hold for the method and conditions named. In cells and extracts the contact can be indirect. Some binding calls cover weakened binding; strength is not graded here. For part of these data: Where a sequence is shown, tags or fusion partners need not be part of it.

On to GFP-STAT1 (from UniProt P42224 1-750), for which the figures for the binding entry in assay [1], in assay [2] and in assay [3] were “binds”, “binds” and “binds weakly”, respectively.
